Experimental data as given in article PMC5221825.
No constants are given. Whether binding was seen depends on the method and setting. Binding can be weak; no strength is given.

Protein sequences, listed by entry. Tags and fused reporters are not part of them. Lines headed by an entry give the natural chain unless they say otherwise; changes in a name come on top.
UniProt A6BLW4: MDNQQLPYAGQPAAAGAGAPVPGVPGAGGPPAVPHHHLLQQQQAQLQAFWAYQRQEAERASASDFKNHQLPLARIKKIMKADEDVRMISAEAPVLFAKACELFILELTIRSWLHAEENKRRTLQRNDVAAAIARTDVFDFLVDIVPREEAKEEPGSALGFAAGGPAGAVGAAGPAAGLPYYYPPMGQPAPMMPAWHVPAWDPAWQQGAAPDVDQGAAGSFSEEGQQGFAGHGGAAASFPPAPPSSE

Columns and labels:
[1] = molecular target: T1, GRAIN YIELD, PLANT HEIGHT AND HEADING DATE 8 (Ghd8) (rice (Oryza sativa)) (UniProt Q0J7P4); test: two-hybrid; GAL4 AD (pGADT7) and BD (pGBKT7) fusions in yeast (AH109, Y187), diploids after mating; growth on YSD lacking Leu, Trp and His with increasing 3AT; 6 days at 30°C
T1 sequence: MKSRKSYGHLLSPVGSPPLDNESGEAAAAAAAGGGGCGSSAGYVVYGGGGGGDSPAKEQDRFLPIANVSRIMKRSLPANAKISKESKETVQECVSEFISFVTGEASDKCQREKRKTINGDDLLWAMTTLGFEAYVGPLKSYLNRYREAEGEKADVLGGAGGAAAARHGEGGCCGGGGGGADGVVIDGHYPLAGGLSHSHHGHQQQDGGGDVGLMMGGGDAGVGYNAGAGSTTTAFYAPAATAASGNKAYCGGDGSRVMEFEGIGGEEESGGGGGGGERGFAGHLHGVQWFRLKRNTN

[2] = molecular target: NF-YC7/Ghd8 heterodimer (rice (Oryza sativa)); test: yeast three-hybrid; BD-Ghd8 (pGBKT7), NF-YC subunit or nothing from pTFT1, AD fusion (pGADT7); growth on YSD lacking Leu, Trp, Ade and His with increasing 3AT; 6 days at 30°C
[3] = molecular target: NF-YC1/Ghd8 heterodimer (rice (Oryza sativa)); test: as above

In the case of NF-YC2 (from UniProt A6BLW4), the binding [1] is reported as “binds”.

NF-YC7 (rice (Oryza sativa)) was tested, and the binding [1] was “binds”.

With NF-YC1 (rice (Oryza sativa)) the binding [1] was “binds”.

B1: PSEUDO RESPONSE REGULATOR 37 (PRR37) (protein, UniProt Q0D3B6 1-742)
chain: MMGTAHHNQTAGSALGVGVGDANDAVPGAGGGGYSDPDGGPISGVQRPPQVCWERFIQKKTIKVLLVDSDDSTRQVVSALLRHCMYEVIPAENGQQAWTYLEDMQNSIDLVLTEVVMPGVSGISLLSRIMNHNICKNIPVIMMSSNDAMGTVFKCLSKGAVDFLVKPIRKNELKNLWQHVWRRCHSSSGSGSESGIQTQKCAKSKSGDESNNNNGSNDDDDDDGVIMGLNARDGSDNGSGTQAQSSWTKRAVEIDSPQAMSPDQLADPPDSTCAQVIHLKSDICSNRWLPCTSNKNSKKQKETNDDFKGKDLEIGSPRNLNTAYQSSPNERSIKPTDRRNEYPLQNNSKEAAMENLEESSVRAADLIGSMAKNMDAQQAARAANAPNCSSKVPEGKDKNRDNIMPSLELSLKRSRSTGDGANAIQEEQRNVLRRSDLSAFTRYHTPVASNQGGTGFMGSCSLHDNSSEAMKTDSAYNMKSNSDAAPIKQGSNGSSNNNDMGSTTKNVVTKPSTNKERVMSPSAVKANGHTSAFHPAQHWTSPANTTGKEKTDEVANNAAKRAQPGEVQSNLVQHPRPILHYVHFDVSRENGGSGAPQCGSSNVFDPPVEGHAANYGVNGSNSGSNNGSNGQNGSTTAVNAERPNMEIANGTINKSGPGGGNGSGSGSGNDMYLKRFTQREHRVAAVIKFRQKRKERNFGKKVRYQSRKRLAEQRPRVRGQFVRQAVQDQQQQGGGREAAADR
B1 was tested, and the binding [2] was “binds” and the binding [3] was “binds”.
